Source: article PMC9638028, “Yeast Smy2 and its human homologs GIGYF1 and -2 regulate Cdc48/VCP function during transcription stress” (Cell Reports, 2022)
No constants are given. Whether binding was seen depends on the method and setting. In cells and extracts the contact can be indirect. Some results given as binding are weak or reduced against the parent protein; the word gives no strength. For some assays here: Where a sequence is shown, tags or fusion partners need not be part of it.

Sequences of proteins named here, by UniProt entry; tags and fusion partners are left off.
UniProt P25694: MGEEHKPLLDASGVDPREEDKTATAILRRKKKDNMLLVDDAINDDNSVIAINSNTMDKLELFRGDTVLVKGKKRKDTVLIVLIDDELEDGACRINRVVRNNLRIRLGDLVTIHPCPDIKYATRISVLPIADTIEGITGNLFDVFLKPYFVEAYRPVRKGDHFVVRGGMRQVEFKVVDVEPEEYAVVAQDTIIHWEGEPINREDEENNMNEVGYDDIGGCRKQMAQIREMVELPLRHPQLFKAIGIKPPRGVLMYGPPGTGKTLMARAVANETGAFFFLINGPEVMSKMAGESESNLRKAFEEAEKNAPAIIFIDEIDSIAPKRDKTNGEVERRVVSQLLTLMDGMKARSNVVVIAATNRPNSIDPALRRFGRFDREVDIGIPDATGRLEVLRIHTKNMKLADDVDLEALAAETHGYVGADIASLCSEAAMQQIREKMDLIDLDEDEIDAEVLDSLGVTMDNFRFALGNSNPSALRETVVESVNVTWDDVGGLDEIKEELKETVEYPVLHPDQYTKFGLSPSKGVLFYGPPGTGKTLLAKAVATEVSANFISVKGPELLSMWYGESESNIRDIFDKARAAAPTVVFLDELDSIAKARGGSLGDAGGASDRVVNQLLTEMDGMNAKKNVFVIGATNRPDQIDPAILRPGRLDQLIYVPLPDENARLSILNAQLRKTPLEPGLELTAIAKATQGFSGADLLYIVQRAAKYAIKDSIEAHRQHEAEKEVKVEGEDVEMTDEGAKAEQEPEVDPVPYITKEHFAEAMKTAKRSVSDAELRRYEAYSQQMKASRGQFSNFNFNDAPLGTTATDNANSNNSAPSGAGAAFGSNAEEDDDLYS
UniProt P04050: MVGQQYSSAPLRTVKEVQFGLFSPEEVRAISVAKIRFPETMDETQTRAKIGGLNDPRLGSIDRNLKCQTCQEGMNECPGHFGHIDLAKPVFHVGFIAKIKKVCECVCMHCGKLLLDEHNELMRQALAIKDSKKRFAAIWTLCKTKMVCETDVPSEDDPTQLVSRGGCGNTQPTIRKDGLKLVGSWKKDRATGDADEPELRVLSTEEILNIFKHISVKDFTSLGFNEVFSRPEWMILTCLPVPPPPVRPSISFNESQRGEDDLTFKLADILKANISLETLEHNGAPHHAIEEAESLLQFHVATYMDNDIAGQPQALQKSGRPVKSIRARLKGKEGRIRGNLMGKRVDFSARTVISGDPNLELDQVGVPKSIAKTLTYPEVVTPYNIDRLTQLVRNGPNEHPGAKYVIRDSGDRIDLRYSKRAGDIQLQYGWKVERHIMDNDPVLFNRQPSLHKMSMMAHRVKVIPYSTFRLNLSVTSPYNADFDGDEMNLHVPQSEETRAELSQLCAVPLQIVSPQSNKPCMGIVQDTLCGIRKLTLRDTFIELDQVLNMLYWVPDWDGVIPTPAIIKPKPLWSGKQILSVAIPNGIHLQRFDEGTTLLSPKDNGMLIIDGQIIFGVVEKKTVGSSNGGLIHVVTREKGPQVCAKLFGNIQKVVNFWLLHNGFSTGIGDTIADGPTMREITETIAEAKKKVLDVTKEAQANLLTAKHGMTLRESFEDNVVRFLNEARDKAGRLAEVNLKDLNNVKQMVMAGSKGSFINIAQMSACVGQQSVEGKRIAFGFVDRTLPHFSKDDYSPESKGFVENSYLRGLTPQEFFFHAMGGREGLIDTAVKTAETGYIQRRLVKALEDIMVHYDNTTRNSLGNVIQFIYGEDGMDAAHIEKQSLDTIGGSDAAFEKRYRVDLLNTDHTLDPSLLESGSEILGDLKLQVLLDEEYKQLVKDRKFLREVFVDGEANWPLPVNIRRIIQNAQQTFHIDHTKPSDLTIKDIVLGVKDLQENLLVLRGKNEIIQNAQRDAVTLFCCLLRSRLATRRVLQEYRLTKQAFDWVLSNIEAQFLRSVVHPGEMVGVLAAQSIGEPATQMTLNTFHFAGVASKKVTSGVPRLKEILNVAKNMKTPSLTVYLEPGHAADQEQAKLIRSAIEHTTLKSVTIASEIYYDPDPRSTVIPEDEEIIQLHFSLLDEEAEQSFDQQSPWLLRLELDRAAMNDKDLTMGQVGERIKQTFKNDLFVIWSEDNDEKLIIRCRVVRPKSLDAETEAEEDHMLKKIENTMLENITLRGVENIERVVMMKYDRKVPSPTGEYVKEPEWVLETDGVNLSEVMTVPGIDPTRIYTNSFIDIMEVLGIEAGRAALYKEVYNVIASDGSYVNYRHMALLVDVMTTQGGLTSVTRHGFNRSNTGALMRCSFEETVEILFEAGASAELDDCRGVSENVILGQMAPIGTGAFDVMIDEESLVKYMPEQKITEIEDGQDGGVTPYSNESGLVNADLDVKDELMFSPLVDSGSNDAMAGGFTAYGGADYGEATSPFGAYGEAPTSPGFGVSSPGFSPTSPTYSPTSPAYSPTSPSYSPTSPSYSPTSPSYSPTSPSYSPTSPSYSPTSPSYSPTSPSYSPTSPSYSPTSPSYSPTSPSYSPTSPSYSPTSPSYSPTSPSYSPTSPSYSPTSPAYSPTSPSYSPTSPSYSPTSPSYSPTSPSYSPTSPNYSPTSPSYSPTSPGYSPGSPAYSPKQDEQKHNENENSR

Columns and labels:
[1] = target: T1, FLAG3-Smy2 (S. cerevisiae) (UniProt P32909); assay: co-IP; anti-FLAG M2 agarose from yeast extracts of cells expressing FLAG3-Smy2 from the GAL promoter (gal) or not (glu); also at different times after 4-NQO; one wash at 500 mM salt
T1 sequence: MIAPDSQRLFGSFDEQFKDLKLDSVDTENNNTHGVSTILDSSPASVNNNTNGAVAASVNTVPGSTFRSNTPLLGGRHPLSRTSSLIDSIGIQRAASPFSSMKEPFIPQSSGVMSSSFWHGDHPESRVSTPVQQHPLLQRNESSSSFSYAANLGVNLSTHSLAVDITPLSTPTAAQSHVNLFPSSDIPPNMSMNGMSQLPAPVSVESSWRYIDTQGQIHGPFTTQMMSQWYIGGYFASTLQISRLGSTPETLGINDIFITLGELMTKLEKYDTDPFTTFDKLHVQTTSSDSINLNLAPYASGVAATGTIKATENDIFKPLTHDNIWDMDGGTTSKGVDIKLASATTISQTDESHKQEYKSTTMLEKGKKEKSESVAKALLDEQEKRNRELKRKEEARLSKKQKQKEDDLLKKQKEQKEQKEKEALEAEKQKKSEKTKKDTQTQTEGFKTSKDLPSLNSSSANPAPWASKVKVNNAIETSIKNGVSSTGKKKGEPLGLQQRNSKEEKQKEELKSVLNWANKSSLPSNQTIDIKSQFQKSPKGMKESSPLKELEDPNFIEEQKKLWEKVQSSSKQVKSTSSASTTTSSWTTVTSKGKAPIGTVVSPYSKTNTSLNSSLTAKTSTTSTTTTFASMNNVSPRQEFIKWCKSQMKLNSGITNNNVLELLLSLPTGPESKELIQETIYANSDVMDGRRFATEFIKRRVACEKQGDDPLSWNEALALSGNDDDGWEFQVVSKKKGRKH

[2] = target: T2, GIGYF2 (human (endogenous in MRC5VA)) (UniProt Q6Y7W6); assay: co-IP; IP with anti-GIGYF2 antibody from MRC5VA wild-type and GIGYF1/2 double-knockout cell extracts, with and without UV; blot for p97/VCP
T2 sequence: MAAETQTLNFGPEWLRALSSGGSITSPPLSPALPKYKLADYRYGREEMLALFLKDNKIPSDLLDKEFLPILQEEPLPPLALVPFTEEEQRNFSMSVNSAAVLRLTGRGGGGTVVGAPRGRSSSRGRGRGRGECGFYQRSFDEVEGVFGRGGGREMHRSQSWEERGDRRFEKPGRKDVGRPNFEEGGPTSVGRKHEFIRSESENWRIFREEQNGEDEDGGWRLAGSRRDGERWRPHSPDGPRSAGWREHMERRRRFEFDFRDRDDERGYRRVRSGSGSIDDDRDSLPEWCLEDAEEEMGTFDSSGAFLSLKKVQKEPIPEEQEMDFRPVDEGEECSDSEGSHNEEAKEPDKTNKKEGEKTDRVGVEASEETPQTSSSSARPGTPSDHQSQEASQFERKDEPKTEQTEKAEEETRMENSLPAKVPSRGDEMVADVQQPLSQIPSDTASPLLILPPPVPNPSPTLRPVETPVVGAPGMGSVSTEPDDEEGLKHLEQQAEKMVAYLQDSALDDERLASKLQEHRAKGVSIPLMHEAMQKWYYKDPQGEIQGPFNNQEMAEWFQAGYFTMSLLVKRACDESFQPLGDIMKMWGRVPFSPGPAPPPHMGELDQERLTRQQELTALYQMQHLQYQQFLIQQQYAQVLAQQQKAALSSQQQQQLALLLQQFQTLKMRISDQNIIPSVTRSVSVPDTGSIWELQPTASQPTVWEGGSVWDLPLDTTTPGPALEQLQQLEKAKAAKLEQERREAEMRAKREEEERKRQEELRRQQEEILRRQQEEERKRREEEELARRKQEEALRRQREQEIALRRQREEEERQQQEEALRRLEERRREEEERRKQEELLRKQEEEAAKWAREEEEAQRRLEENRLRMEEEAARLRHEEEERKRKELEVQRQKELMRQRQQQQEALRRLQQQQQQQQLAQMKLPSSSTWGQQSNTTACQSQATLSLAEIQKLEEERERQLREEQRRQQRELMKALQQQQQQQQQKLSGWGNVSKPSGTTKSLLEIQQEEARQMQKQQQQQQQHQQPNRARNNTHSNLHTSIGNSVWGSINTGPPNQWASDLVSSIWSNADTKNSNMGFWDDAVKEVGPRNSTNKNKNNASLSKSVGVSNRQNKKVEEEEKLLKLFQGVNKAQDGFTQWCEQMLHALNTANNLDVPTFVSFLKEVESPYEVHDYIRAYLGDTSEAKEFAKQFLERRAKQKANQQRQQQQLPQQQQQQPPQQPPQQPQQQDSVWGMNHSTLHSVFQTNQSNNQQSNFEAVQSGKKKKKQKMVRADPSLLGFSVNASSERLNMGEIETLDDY

[3] = target: T2, GIGYF2 (human (endogenous in MRC5VA)); assay: proximity ligation; Duolink PLA on fixed, permeabilised MRC5VA wild-type or GIGYF1/2 double-knockout cells; antibodies to p97, GIGYF2, UFD1
[4] = target: Cdc48-HA3 (S. cerevisiae) (UniProt P25694); assay: co-IP; anti-HA IP from yeast extracts of Myc-tagged Smy2 strains with or without Cdc48-HA3; with and without UV irradiation

With Cdc48 (from UniProt P25694 1-835) the binding [1] was “binds”.

With Rpb1 (from UniProt P04050 1-1733) the binding [1] was “binds”.

p97/VCP (from UniProt P55072 1-806) was tested, and the binding [2] was “binds” and the binding [3] was “binds”.

B1: Myc9-TEV2-His6-Smy2 (protein, UniProt P32909 1-740)
chain: T1 sequence
In the case of B1, the binding [4] is reported as “binds”.
